Measured data: PubChem BioAssay AID1259254 (NCATS, 2017)
In all, the deposit lists about 59,000 reagents; shown is a part drawn at random. About 1,550 of them (2.6%) were called active. 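G2 share is only a proxy for re-replication; each gene was hit by three separate siRNAs, and active genes were retested.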 Entries without a mark were called inactive. Reagents against one gene are numbered here. Not all columns of the deposit are shown. Not given: the amount of reagent.

Assay: 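Genome-wide screen for genes that prevent DNA re-replication in cancer cells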 (primary screen)
System: human HCT116 colorectal cancer cells
Reagents: single siRNA against human genes
Time to read-out: 3 days
Detection: 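Imaged Hoechst DNA stain sorts each cell into a cycle phase by DNA amount; per plate, G2 fraction set to 0% for non-targeting and 100% for GMNN siRNA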
Scale: G2 robust z-score: higher = more G2 cells, more excess DNA replication
Call rule: 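An siRNA counts as active if its G2 robust z-score lies at least 5 MADs above the screen median; here such calls match roughly 38% of GMNN control or more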

G2 robust z-score, by gene and reagent
UTP14A (GeneID 10813): #1 4.8; #2 0.687; #3 0.995
BICDL1 (GeneID 92558): #1 -0.304; #2 -0.748; #3 -0.393
POGLUT1 (GeneID 56983): #1 0.101; #2 1.87; #3 -0.543
H4C7 (GeneID 8369): #1 1.77; #2 0.156; #3 1.26
UQCRFS1P2 (GeneID 647123): #1 0.669; #2 2.17; #3 0.0624
SOX21 (GeneID 11166): #1 0.482; #2 0.129; #3 -0.689
SCRN3 (GeneID 79634): #1 -0.684; #2 0.68; #3 2.43
NUDT7 (GeneID 283927): #1 0.311; #2 0.698; #3 -0.399
SLC5A7 (GeneID 60482): #1 -0.49; #2 -1.12; #3 0.114
ASPG (GeneID 374569): #1 1.47; #2 -0.669; #3 0.295

In a second layout: 2 of the entries above.
SLC5A7 (GeneID 60482) #1 — G2 robust z-score: -0.49
SLC5A7 (GeneID 60482) #2 — G2 robust z-score: -1.12
